According to article PMC12669040, “Tumour-specific STING agonist synthesis via a two-component prodrug system” (Nature Chemistry, 2025):
Values joined by “and” are separate entries in the source; they are usually repeats but may differ in a detail not shown here. Equal entries are not always repeated. The source gives many values for each of these; only a part stands here.

Key:
[1] = Colorimetric alkylation rate constant assay with TNB^2− as non-specific thiol; assay type: physicochemical; details: in µM
MC38 tumours = details: individual mice, day 5
[2] = Replicate 1, 181 sec, [B]0 = 250
[3] = Replicate 1, 362 sec, [B]0 = 250
[4] = Replicate 1, 542 sec, [B]0 = 250
[5] = Time 3613 sec, [B]0 = 250, Replicates 1-3
[6] = Time 3794 sec, [B]0 = 250, Replicates 1-3
[7] = Time 3974 sec, [B]0 = 250, Replicates 1-3
[8] = Time 4155 sec, [B]0 = 250, Replicates 1-3
[9] = Time 4336 sec, [B]0 = 250, Replicates 1-3
[10] = Time 4516 sec, [B]0 = 250, Replicates 1-3
[11] = Time 4697 sec, [B]0 = 250, Replicates 1-3
[12] = Time 4878 sec, [B]0 = 250, Replicates 1-3
[13] = Time 5058 sec, [B]0 = 250, Replicates 1-3
[14] = Time 5239 sec, [B]0 = 250, Replicates 1-3
[15] = Time 5419 sec, [B]0 = 250, Replicates 1-3
[16] = Time 5600 sec, [B]0 = 250, Replicates 1-3
[17] = Time 5781 sec, [B]0 = 250, Replicates 1-3
[18] = Time 5961 sec, [B]0 = 250, Replicates 1-3

| remaining [B] ([1]; Replicate 1, 0 sec, [B]0 = 250) | remaining [B] [1, 2] | remaining [B] [1, 3] | remaining [B] [1, 4] | remaining [B] ([1]; Replicate 2, 0 sec, [B]0=250) | remaining [B] ([1]; Replicate 2, 181 sec, [B]0=250) | remaining [B] ([1]; Replicate 2, 362 sec, [B]0=250) | remaining [B] ([1]; Replicate 3, 0 sec, [B]0=250) | remaining [B] ([1]; Replicate 3, 181 sec, [B]0=250) | remaining [B] ([1]; Replicate 3, 362 sec, [B]0=250) | remaining [B] ([1]; Replicate 3, 542 sec, [B]0=250) | remaining [B] [1, 5] | remaining [B] [1, 6] | remaining [B] [1, 7] | remaining [B] [1, 8] | remaining [B] [1, 9] | remaining [B] [1, 10] | remaining [B] [1, 11] | remaining [B] [1, 12] | remaining [B] [1, 13] | Compound | other results |
| --- | --- | --- | --- | --- | --- | --- | --- | --- | --- | --- | --- | --- | --- | --- | --- | --- | --- | --- | --- | --- | --- |
| 245.849 | 245.382 | 245.017 | 244.349 | 246.774 | 246.22 | 245.817 | 247.399 | 246.491 | 246.063 | 245.723 | 238.691 and 239.856 | 239.687 and 238.364 and 239.504 | 239.498 and 238.061 and 239.201 | 239.095 and 237.809 and 238.886 | 238.691 and 237.406 and 238.584 | 238.439 and 237.116 and 238.243 | 238.175 and 236.826 and 237.979 | 237.835 and 236.511 and 237.651 | 237.494 and 236.259 and 237.273 | O=C(CCl)Nc1ccccc1 [Compound C2] | remaining [B] [1, 14]: 237.217 and 235.932 and 237.034; remaining [B] [1, 15]: 237.003 and 235.68 and 236.656; remaining [B] [1, 16]: 236.587 and 235.34 and 236.379; remaining [B] [1, 17]: 236.209 and 235.075 and 236.064; remaining [B] [1, 18]: 235.944 and 234.71 and 235.736 |
| 250.574 | 249.503 | 248.394 | 247.714 | 250.164 | 248.967 | 248.337 | 250.498 | 249.377 | 249.389 | 248.734 | 239.977 and 241.242 | 241.123 and 239.876 and 240.764 | 240.443 and 239.12 and 240.562 | 240.355 and 239.032 and 240.033 | 240.077 and 238.427 and 239.68 | 239.624 and 238.061 and 239.39 | 239.208 and 237.608 and 239.126 | 238.868 and 237.457 and 238.785 | 238.502 and 237.053 and 238.395 | C=CS(=O)(=O)Nc1cc2cc(C(=O)CCC(=O)O)sc2cc1OC [Compound E1] | remaining [B] [1, 14]: 238.414 and 236.6 and 237.991; remaining [B] [1, 15]: 237.86 and 236.322 and 237.525; remaining [B] [1, 16]: 237.482 and 235.831 and 237.324; remaining [B] [1, 17]: 237.104 and 235.466 and 236.958; remaining [B] [1, 18]: 236.574 and 235.05 and 236.53 |
| 245.124 | 244.418 | 244.129 | 243.864 | 244.701 | 244.084 | 244.008 | 243.221 | 242.818 | 243.032 | 242.717 | 238.773 and 238.993 | 237.526 and 238.572 and 238.666 | 237.299 and 238.294 and 238.439 | 237.022 and 238.068 and 238.187 | 236.77 and 237.677 and 237.884 | 236.505 and 237.4 and 237.582 | 236.241 and 237.135 and 237.405 | 236.052 and 236.934 and 237.103 | 235.724 and 236.719 and 236.826 | COc1cc2sc(C(=O)CCC(=O)O)cc2cc1NC(=O)CCl [Compound E2] | remaining [B] [1, 14]: 235.485 and 236.43 and 236.549; remaining [B] [1, 15]: 235.207 and 236.165 and 236.309; remaining [B] [1, 16]: 235.006 and 235.875 and 236.057; remaining [B] [1, 17]: 234.716 and 235.636 and 235.755; remaining [B] [1, 18]: 234.376 and 235.321 and 235.503 |
| – | – | – | – | – | – | – | – | – | – | – | – | – | – | – | – | – | – | – | – | COc1cc2cc(C(=O)CCC(=O)O)sc2cc1OC [MSA2] | Tumor Size (MC38 tumours): 81.683 mm^3 and 103.155 mm^3 |
| 248.01 | 247.342 | 246.913 | 246.561 | 246.579 | 245.772 | 245.81 | 247.947 | 245.061 | 245.301 | 245.427 | 245.023 and 244.122 | 244.204 and 244.897 and 244.071 | 244.116 and 244.847 and 243.983 | 244.003 and 244.721 and 243.908 | 243.927 and 244.658 and 243.807 | 243.914 and 244.494 and 243.731 | 243.788 and 244.532 and 243.655 | 243.751 and 244.456 and 243.58 | 243.625 and 244.318 and 243.492 | O=C(CCl)Nc1ccccc1C(=O)O [Compound C5] | remaining [B] [1, 14]: 243.574 and 244.229 and 243.403; remaining [B] [1, 15]: 243.499 and 244.166 and 243.353; remaining [B] [1, 16]: 243.41 and 244.078 and 243.252; remaining [B] [1, 17]: 243.322 and 244.015 and 243.151; remaining [B] [1, 18]: 243.259 and 243.889 and 243.088 |
| 247.134 | 246.277 | 245.534 | 244.904 | 246.132 | 245.552 | 245.262 | 247.789 | 245.37 | 245.332 | 245.231 | 239.334 and 239.579 | 239.485 and 239.032 and 239.289 | 239.258 and 238.742 and 238.949 | 238.893 and 238.528 and 238.684 | 238.628 and 238.112 and 238.357 | 238.301 and 237.772 and 238.054 | 237.898 and 237.494 and 237.739 | 237.671 and 237.28 and 237.462 | 237.343 and 236.927 and 237.223 | O=C(CCl)Nc1ccc(F)cc1 [Compound C3] | remaining [B] [1, 14]: 237.041 and 236.688 and 236.845; remaining [B] [1, 15]: 236.877 and 236.297 and 236.58; remaining [B] [1, 16]: 236.436 and 236.033 and 236.29; remaining [B] [1, 17]: 236.222 and 235.743 and 235.95; remaining [B] [1, 18]: 235.881 and 235.403 and 235.673 |
| 246.888 | 246.132 | 244.91 | 244.091 | 244.336 | 243.378 | 242.799 | 246.258 | 244.557 | 244.066 | 243.788 | 232.372 and 230.815 | 231.666 and 231.679 and 230.16 | 231.011 and 231.049 and 229.543 | 230.369 and 230.343 and 228.938 | 229.751 and 229.713 and 228.32 | 229.146 and 229.045 and 227.678 | 228.529 and 228.415 and 227.06 | 227.911 and 227.798 and 226.493 | 227.332 and 227.181 and 225.888 | O=C(CCl)N1CCOCC1 [Compound C4] | remaining [B] [1, 14]: 226.664 and 226.551 and 225.233; remaining [B] [1, 15]: 226.072 and 225.983 and 224.679; remaining [B] [1, 16]: 225.53 and 225.341 and 224.099; remaining [B] [1, 17]: 224.938 and 224.736 and 223.494; remaining [B] [1, 18]: 224.383 and 224.106 and 222.952 |
